PubChem BioAssay AID504771 | Drosophila RNAi Screening Center | 2011
Aim: 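Genes whose knock-down alters aggregation of mutant huntingtin with 46 glutamines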 (follow-up of hits). System: Drosophila S2 cells with copper-inducible mutant huntingtin exon 1 (46 glutamines)-eGFP. Reagents: long dsRNA against Drosophila genes, 250 ng dsRNA per well. Duration: 3 days of knock-down, then 2 days of copper induction before fixing. Challenge: copper sulfate at 400 µM to switch on Htt-Q46-eGFP expression. Measurement: 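Automated image analysis of GFP-tagged aggregates per well: number, size and intensity against plate mean and SD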. Active means: 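Primary candidate if any aggregate measure lay more than 2 SD from the plate mean; active only if it then passed checks for off-target effects, reproducibility, independent dsRNAs and a promoter counter-screen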. Calls: active = confirmed modifier; inactive = primary candidate not confirmed.
The reagents shown are a selection, not the whole library. 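All genes were primary candidates; inactive means validation failed, not no effect; aggregate scores behind calls are not deposited.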 Names joined by + are all predicted targets of the reagent.

After knock-down of Taf13 [DRSC02106] the results were aggregation phenotype knock-down raises aggregates; inactive. For nej [DRSC18006] the deposit lists aggregation phenotype knock-down raises aggregates; active. Silencing of Dhx15 [DRSC06036] came out at: aggregation phenotype knock-down lowers aggregates; inactive. For Rpt2 [DRSC16799], the values are aggregation phenotype knock-down lowers aggregates; inactive. Cka [DRSC22858] gave aggregation phenotype knock-down lowers aggregates; active. Silencing of Upf2 [DRSC18218] came out at: aggregation phenotype knock-down raises aggregates; active.

With knock-down of CG18810 [DRSC02701], the record shows aggregation phenotype knock-down lowers aggregates; inactive. Against MED11 [DRSC10739] the deposit lists aggregation phenotype knock-down lowers aggregates; inactive. Depletion of MED11 [DRSC23091] came out at: aggregation phenotype knock-down lowers aggregates; inactive. SLO2 [DRSC06212] scored aggregation phenotype knock-down lowers aggregates; inactive. For mRpS34 [DRSC09918] the deposit lists aggregation phenotype knock-down lowers aggregates; inactive. With knock-down of ZnT63C [DRSC21989] the results were aggregation phenotype knock-down lowers aggregates; inactive.

With knock-down of SmE [DRSC02680] the results were aggregation phenotype knock-down lowers aggregates; inactive. Silencing of UQCR-C2 [DRSC10405] came out at: aggregation phenotype knock-down lowers aggregates; inactive. For SmB [DRSC03437], the values are aggregation phenotype knock-down lowers aggregates; inactive. Against Rrp6 [DRSC16223], the entry reads aggregation phenotype knock-down lowers aggregates; inactive. CG31229 [DRSC13309] showed aggregation phenotype knock-down lowers aggregates; inactive. With knock-down of Rpt1 [DRSC07542], the screen gave aggregation phenotype knock-down lowers aggregates; inactive.

3 entries from above, set out differently.
{"gene": "nej", "dsRNA": "DRSC18006", "aggregation phenotype": "knock-down raises aggregates", "activity call": "active"}
{"gene": "Dhx15", "dsRNA": "DRSC06036", "aggregation phenotype": "knock-down lowers aggregates", "activity call": "inactive"}
{"gene": "Rpt2", "dsRNA": "DRSC16799", "aggregation phenotype": "knock-down lowers aggregates", "activity call": "inactive"}

The results go on:
Depletion of Polr2F [DRSC12366] gave: aggregation phenotype knock-down lowers aggregates; inactive. Against tsr [DRSC04718] the deposit lists aggregation phenotype knock-down lowers aggregates; inactive. After knock-down of Edem2 [DRSC02877] the results were aggregation phenotype knock-down lowers aggregates; inactive. Depletion of alphaSnap [DRSC11285] resulted in: aggregation phenotype knock-down lowers aggregates; inactive. ND-B14.7 [DRSC04544] showed aggregation phenotype knock-down lowers aggregates; inactive. Against Prosalpha7 [DRSC07516], the values are aggregation phenotype knock-down lowers aggregates; inactive.

Silencing of CG4294 [DRSC04460] gave: aggregation phenotype knock-down lowers aggregates; active. For CG13360 [DRSC18536], the values are aggregation phenotype knock-down raises aggregates; inactive. After knock-down of RpS18 [DRSC07540], the screen gave aggregation phenotype knock-down lowers aggregates; inactive. With knock-down of Ref1 [DRSC22387], the screen gave aggregation phenotype knock-down lowers aggregates; inactive. snoRNA:Or-CD12 + RpL28 [DRSC08293] scored aggregation phenotype knock-down lowers aggregates; inactive. Against nonC [DRSC18367], the entry reads active.

Against Atx2 [DRSC23010], the values are aggregation phenotype knock-down lowers aggregates; active. Ino80 [DRSC15333] gave aggregation phenotype knock-down raises aggregates; inactive.
